The list shows a part of the results. Residues, ends and D or L forms follow the SMILES beside them. *: point of attachment. Cbz = O=C(OCc1ccccc1)*

Protein sequences, listed by entry. Tags and fused reporters are not part of them. Lines headed by an entry give the natural chain unless they say otherwise; changes in a name come on top.
UniProt Q9HD34: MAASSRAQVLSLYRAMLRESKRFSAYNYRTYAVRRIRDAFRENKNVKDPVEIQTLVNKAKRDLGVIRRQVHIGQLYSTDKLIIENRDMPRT
UniProt O15479: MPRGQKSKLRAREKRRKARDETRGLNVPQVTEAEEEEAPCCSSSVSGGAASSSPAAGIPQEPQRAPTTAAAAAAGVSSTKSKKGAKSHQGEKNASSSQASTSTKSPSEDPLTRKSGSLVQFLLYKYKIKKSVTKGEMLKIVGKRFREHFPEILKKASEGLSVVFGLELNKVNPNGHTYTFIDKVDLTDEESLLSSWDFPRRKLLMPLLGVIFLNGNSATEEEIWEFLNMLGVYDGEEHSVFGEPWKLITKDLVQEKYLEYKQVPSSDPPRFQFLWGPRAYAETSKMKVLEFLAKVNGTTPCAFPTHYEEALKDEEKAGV
UniProt O60337: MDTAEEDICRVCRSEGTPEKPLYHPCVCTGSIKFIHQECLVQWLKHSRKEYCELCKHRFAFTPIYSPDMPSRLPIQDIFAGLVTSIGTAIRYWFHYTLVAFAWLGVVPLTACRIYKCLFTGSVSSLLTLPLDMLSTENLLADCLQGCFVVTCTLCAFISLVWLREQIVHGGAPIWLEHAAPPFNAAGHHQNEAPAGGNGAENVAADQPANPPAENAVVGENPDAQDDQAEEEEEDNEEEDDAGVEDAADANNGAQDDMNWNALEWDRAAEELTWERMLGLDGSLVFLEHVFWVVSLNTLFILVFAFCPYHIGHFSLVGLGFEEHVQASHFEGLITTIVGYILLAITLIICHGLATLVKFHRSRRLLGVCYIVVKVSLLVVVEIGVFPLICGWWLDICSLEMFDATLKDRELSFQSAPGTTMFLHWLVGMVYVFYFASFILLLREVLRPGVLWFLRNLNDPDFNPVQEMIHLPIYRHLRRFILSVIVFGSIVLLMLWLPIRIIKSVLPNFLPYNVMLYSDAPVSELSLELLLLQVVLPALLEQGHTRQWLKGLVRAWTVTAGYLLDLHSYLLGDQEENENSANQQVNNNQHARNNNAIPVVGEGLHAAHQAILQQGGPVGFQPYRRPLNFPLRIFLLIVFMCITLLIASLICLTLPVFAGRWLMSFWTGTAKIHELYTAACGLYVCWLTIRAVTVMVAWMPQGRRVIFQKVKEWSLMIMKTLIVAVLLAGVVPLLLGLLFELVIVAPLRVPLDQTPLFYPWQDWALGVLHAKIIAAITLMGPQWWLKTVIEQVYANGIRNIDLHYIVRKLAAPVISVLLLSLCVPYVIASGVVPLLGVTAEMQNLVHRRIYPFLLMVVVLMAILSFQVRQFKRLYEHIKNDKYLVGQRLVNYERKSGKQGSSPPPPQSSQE
UniProt Q9H0U3: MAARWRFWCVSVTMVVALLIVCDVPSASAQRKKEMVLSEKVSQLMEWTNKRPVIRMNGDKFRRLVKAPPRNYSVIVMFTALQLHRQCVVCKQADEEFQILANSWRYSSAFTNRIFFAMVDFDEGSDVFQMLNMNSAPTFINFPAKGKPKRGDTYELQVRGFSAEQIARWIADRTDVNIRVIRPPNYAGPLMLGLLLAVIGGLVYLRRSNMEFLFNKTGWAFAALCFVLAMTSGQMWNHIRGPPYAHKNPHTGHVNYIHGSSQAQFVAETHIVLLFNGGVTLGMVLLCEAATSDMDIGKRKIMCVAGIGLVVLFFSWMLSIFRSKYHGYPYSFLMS
UniProt P45985: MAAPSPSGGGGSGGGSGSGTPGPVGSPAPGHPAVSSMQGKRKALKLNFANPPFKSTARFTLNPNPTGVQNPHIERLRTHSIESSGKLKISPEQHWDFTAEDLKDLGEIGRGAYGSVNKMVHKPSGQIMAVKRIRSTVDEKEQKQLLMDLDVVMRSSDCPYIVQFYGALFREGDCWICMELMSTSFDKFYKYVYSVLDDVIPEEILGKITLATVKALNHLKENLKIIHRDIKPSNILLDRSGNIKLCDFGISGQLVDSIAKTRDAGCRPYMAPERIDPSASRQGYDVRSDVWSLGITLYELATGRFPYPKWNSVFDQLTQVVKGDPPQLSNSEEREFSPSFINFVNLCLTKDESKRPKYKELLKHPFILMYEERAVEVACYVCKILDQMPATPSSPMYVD
UniProt Q6UWE0: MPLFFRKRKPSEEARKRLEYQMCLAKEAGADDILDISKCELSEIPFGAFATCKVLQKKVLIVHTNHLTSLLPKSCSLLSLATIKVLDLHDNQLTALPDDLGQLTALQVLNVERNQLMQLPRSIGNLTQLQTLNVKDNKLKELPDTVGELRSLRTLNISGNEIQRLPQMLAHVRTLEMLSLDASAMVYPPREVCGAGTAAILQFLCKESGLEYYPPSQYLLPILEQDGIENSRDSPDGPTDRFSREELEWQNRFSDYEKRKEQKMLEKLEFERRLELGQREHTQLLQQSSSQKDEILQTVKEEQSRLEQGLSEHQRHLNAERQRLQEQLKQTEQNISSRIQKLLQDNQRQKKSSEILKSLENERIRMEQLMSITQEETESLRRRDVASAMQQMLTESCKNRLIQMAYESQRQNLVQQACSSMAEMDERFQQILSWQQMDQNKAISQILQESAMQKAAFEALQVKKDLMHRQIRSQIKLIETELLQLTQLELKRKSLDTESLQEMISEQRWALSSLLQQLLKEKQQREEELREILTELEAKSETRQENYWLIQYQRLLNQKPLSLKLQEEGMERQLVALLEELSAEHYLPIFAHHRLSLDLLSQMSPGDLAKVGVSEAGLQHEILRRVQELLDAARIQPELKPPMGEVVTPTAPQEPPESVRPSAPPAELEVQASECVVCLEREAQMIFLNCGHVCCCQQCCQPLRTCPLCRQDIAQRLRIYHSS
UniProt Q16706: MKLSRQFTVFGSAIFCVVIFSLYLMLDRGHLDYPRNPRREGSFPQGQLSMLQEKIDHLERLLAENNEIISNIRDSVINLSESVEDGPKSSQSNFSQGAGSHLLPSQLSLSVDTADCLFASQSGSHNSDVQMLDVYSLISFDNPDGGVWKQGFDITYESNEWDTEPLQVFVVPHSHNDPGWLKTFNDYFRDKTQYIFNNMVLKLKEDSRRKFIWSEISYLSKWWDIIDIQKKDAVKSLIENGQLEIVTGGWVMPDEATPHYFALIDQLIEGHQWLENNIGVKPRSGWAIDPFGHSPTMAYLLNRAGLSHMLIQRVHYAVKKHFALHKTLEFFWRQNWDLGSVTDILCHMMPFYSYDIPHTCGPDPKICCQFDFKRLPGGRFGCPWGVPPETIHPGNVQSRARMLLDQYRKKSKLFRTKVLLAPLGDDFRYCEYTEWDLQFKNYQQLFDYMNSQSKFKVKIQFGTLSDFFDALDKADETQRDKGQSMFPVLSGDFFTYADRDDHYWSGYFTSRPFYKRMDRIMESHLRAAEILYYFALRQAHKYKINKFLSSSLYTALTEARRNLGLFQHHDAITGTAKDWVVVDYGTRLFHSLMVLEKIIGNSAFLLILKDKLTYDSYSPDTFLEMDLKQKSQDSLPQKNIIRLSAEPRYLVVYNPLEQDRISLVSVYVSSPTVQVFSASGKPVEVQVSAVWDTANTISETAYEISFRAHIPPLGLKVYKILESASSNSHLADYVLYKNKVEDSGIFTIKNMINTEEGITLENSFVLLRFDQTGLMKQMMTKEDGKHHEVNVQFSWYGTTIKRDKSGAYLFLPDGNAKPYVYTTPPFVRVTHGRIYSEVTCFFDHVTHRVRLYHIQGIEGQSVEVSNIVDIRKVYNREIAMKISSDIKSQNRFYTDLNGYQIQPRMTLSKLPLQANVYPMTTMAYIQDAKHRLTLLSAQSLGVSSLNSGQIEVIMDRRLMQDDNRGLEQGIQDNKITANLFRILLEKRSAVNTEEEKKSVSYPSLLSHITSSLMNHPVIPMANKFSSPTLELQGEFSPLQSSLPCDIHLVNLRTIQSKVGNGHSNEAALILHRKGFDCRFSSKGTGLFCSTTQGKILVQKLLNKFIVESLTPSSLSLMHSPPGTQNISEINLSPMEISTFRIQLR
UniProt Q9Y4Z0: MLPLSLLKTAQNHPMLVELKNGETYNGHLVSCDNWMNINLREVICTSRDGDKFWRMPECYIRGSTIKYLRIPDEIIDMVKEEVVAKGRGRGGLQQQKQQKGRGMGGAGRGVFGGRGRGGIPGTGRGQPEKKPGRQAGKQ
UniProt P28482, whole entry, looked up: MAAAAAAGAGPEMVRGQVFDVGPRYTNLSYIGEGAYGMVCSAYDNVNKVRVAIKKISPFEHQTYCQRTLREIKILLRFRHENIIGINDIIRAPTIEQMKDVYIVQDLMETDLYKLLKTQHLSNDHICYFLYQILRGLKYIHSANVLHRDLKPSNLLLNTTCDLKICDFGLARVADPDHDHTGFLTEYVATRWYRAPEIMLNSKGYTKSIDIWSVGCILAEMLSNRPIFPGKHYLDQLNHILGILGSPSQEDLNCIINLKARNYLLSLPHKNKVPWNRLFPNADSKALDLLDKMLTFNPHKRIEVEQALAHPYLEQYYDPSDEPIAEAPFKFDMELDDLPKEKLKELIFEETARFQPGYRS
UniProt Q8N5G2: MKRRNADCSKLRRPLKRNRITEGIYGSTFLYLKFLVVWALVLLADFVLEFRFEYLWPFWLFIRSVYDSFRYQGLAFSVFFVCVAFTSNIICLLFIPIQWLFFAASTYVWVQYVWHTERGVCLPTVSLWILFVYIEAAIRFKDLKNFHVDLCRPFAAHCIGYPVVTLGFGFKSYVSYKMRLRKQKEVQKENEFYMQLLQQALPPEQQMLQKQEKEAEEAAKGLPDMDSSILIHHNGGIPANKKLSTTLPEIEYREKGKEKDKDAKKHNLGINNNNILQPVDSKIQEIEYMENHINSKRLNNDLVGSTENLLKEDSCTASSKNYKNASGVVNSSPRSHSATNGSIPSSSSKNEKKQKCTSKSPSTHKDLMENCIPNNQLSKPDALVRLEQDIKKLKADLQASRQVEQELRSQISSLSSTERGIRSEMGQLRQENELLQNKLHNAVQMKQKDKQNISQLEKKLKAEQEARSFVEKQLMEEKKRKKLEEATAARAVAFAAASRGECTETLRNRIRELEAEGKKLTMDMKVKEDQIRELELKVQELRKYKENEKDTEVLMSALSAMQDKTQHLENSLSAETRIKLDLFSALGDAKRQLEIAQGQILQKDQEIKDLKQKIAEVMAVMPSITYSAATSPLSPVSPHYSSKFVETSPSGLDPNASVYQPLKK
UniProt P55145: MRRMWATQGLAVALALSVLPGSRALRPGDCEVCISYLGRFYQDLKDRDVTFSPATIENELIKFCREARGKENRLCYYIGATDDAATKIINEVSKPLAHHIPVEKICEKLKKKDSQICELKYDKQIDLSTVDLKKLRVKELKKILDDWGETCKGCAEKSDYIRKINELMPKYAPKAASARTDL
UniProt Q9UKM7: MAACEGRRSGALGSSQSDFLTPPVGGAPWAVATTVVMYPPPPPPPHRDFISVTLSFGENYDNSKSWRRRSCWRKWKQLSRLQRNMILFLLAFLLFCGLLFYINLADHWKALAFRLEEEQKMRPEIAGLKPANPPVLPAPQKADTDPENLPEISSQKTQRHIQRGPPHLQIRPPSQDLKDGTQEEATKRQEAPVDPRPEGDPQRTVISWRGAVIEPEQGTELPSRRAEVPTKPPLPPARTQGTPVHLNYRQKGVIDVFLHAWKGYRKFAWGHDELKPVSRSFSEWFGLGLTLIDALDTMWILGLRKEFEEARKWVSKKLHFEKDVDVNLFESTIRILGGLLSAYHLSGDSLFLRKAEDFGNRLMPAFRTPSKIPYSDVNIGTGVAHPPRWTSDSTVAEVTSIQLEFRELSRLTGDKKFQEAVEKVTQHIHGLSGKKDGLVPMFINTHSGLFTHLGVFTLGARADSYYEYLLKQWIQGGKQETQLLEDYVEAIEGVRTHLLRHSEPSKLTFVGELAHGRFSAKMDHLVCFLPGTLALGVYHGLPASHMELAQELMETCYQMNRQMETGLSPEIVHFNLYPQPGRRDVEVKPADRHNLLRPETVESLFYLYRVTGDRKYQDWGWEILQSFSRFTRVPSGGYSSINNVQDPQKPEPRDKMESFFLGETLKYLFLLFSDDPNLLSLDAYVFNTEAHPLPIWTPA
UniProt P62310: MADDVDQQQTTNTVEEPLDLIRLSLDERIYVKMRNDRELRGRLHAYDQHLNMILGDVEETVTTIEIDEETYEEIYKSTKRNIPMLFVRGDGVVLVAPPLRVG
UniProt Q9UK45: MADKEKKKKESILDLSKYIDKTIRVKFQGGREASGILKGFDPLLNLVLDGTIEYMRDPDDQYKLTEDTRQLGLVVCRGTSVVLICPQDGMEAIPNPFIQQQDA

The source of these data is the supplement of paper PMC10849652.

Compound in this assay: CC(C)C[C@@H](C=O)NC(=O)[C@H](CC(C)C)NC(=O)[C@H](CC(C)C)NC(=O)OCc1ccccc1
The assay is described as follows: log2 fold change, soluble protein after heating vs DMSO (PISA); higher = thermal stabilisation; K562 cells, 10 uM, 30 min; active = over 0.2 and 3.5 SD of the protein, either way, in both replicates (recomputed). The gist of the method: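 Values are thermal stability changes relative to control samples and are taken from duplicates. They are stated as log2 fold changes. Before quantification by TMTpro 16plex LC-MS/MS with equalised channel sums, K562 cells at 2×10^6 cells/mL were treated with 10 μM compound for 30 min, heated in aliquots for 3 min across 48°C-58°C, pooled, extracted in PBS with 0.5% NP-40 at 4°C, and centrifuged at 21,000xg for 90 min to give the soluble supernatant.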
Turning to LYRM4 (UniProt Q9HD34), the log2 fold change is inactive: -0.001.
Under MAGEB2 (UniProt O15479) stands inactive: 0.119; under MAP1A isoform 2 (UniProt P78559), inactive: 0.048.
To MANBA (UniProt O00462) belongs inactive: 0.108; to MAP7D1 (UniProt Q3KQU3), inactive: 0.086.
As to MAEA (UniProt Q7L5Y9), the log2 fold change was inactive: 0.035.
With MARCHF6 (UniProt O60337), the log2 fold change is inactive: 0.166.
To LRRC8A (UniProt Q8IWT6) belongs inactive: 0.052.
MAGT1 (UniProt Q9H0U3): the log2 fold change is inactive: -0.002.
For the target M6PR (UniProt P20645), the log2 fold change is inactive: 0.026.
Turning to LSM6 (UniProt P62312), the log2 fold change was inactive: -0.016.
On to LSM2 (UniProt Q9Y333), for which the log2 fold change is inactive: -0.049.
In the case of MACF1 (UniProt H3BQK9), the log2 fold change was inactive: 0.085.
To LYZ (UniProt P61626) belongs inactive: -0.074; to MAP2K4 isoform 2 (UniProt P45985), inactive: 0.026.
Consider LRRFIP2 (UniProt Q9Y608), for which the log2 fold change is inactive: 0.018.
On to MAN2C1 isoform 4 (UniProt Q9NTJ4), for which the log2 fold change is inactive: -0.02.
To LRSAM1 (UniProt Q6UWE0) belongs inactive: -0.01.
Take MAN2A1 (UniProt Q16706): the log2 fold change is inactive: 0.002.
As to LSM4 (UniProt Q9Y4Z0), the log2 fold change is inactive: 0.009.
To MAPK1 (UniProt P28482) belongs inactive: -0.023.
For MACO1 (UniProt Q8N5G2), the log2 fold change is inactive: 0.034.
For MAN2A2 (UniProt P49641), the log2 fold change is inactive: 0.013.
Take MALSU1 (UniProt Q96EH3): the log2 fold change was inactive: 0.073.
To MANF (UniProt P55145) belongs inactive: -0.015.
To MARCHF5 (UniProt Q9NX47) belongs inactive: 0.023; to MAP7 isoform 7 (UniProt Q14244), inactive: 0.054.
As for MAN1B1 (UniProt Q9UKM7), the log2 fold change was inactive: -0.005.
As to MAD2L1BP isoform 3 (UniProt Q15013), the log2 fold change is inactive: -0.011.
Regarding MAPRE1 (UniProt Q15691), the log2 fold change was inactive: 0.016.
Consider LSM3 (UniProt P62310), for which the log2 fold change was inactive: -0.01.
With LYAR (UniProt Q9NX58), the log2 fold change was inactive: 0.078.
Consider LSM7 (UniProt Q9UK45), for which the log2 fold change was inactive: 0.001.
